These are yes or no findings as the source states them, for the method shown. In cells and extracts the contact can be indirect. Binding calls can cover weak binding; strength is not graded here. Tags and fused reporters may be left off the sequences shown.
Target: Polymerized microtubules
Test: co-sedimentation; microtubule pelleting assay: polymerized microtubules incubated with lysates of NIH/3T3 cells overexpressing the V5-tagged proteins, centrifuged at 100 000 x g; control samples without microtubules; only the target purified

B1: Full-length V5-tagged human DCDC2 (protein, UniProt Q9UHG0 1-476)
chain: MSGSSARSSHLSQPVVKSVLVYRNGDPFYAGRRVVIHEKKVSSFEVFLKEVTGGVQAPFGAVRNIYTPRTGHRIRKLDQIQSGGNYVAGGQEAFKKLNYLDIGEIKKRPMEVVNTEVKPVIHSRINVSARFRKPLQEPCTIFLIANGDLINPASRLLIPRKTLNQWDHVLQMVTEKITLRSGAVHRLYTLEGKLVESGAELENGQFYVAVGRDKFKKLPYSELLFDKSTMRRPFGQKASSLPPIVGSRKSKGSGNDRHSKSTVGSSDNSSPQPLKRKGKKEDVNSEKLTKLKQNVKLKNSQETIPNSDEGIFKAGAERSETRGAAEVQEDEDTQVEVPVDQRPAEIVDEEEDGEKANKDAEQKEDFSGMNGDLEEEGGREATDAPEQVEEILDHSEQQARPARVNGGTDEENGEELQQVNNELQLVLDKERKSQGAGSGQDEADVDPQRPPRPEVKITSPEENENNQQNKDYAAVA
**Q.** How did the binding turn out when B1 was run?
**A.** binds
